Values from PubChem BioAssay AID743121 (NCATS, 2013).

- Screen: 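Genes whose silencing strengthens cell killing by camptothecin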 (primary screen)
- System: MDA-MB-231 cells, a human breast cancer line
- Reagents: single siRNA against human genes, 20 nM siRNA (0.8 pmol per well)
- Duration: 120 h (drug added 48 h after transfection, read 72 h later)
- Conditions: camptothecin 20 nM (about EC30) for 72 h; vehicle 0.1% DMSO in parallel plates
- Measured: 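CellTiter-Glo ATP signal, scaled to control siRNA as percent viability; sensitisation given as log2 of untreated divided by camptothecin-treated viability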
- Reading the numbers: log2 vehicle/camptothecin viability: higher = stronger sensitisation to camptothecin; viability with camptothecin: higher = more viable cells
- Units: viability with camptothecin in % of control
- Rule for the call: 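Each gene scored by redundant siRNA activity (RSA) over its individual siRNA ratios; a gene is called active at p < 0.001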
This is one part, drawn at random, of about 26,000 reagents tested. 167 of them (0.63%) count as active. 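Calls are per gene from RSA p-values that are not deposited; an individual active-marked siRNA can sensitise only weakly.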 Entries without a mark were called inactive. The numbers tell different reagents against one gene apart. Not all columns of the deposit are shown. No sequences are given here.

For CATSPER2 (cation channel sperm associated 2) #1 the deposit lists log2 vehicle/camptothecin viability 0.229; viability with camptothecin 87.2.
With knock-down of CATSPER2 (cation channel sperm associated 2) #2 the results were log2 vehicle/camptothecin viability -0.387; viability with camptothecin 101.
Depletion of CATSPER2 (cation channel sperm associated 2) #3 resulted in: log2 vehicle/camptothecin viability 0.181; viability with camptothecin 94.7.
Knock-down of CATSPER2 (cation channel sperm associated 2) #4 came out at: log2 vehicle/camptothecin viability -0.172; viability with camptothecin 116.
CATSPER2 (cation channel sperm associated 2) #5 gave log2 vehicle/camptothecin viability -0.168; viability with camptothecin 106.
With knock-down of CATSPER2 (cation channel sperm associated 2) #6 the results were log2 vehicle/camptothecin viability 0.221; viability with camptothecin 23.4.
With knock-down of PARP1 (poly(ADP-ribose) polymerase 1) #1, the record shows log2 vehicle/camptothecin viability -0.162; viability with camptothecin 105.
Against PARP1 (poly(ADP-ribose) polymerase 1) #2, the values are log2 vehicle/camptothecin viability -0.0606; viability with camptothecin 73.1.
Against PARP1 (poly(ADP-ribose) polymerase 1) #3, the entry reads log2 vehicle/camptothecin viability -0.302; viability with camptothecin 54.2.
PARP1 (poly(ADP-ribose) polymerase 1) #4 gave log2 vehicle/camptothecin viability -0.593; viability with camptothecin 71.5.
For GPR37 (G protein-coupled receptor 37) #1, the entry reads log2 vehicle/camptothecin viability -0.304; viability with camptothecin 69.5.
After knock-down of GPR37 (G protein-coupled receptor 37) #2, the record shows log2 vehicle/camptothecin viability -0.299; viability with camptothecin 69.
Against GPR37 (G protein-coupled receptor 37) #3, the entry reads log2 vehicle/camptothecin viability -0.188; viability with camptothecin 77.3.
Against GPR37 (G protein-coupled receptor 37) #4, the values are log2 vehicle/camptothecin viability -0.247; viability with camptothecin 60.8.
Knock-down of AKAP12 (A-kinase anchoring protein 12) #1 gave: log2 vehicle/camptothecin viability 0.123; viability with camptothecin 63.
AKAP12 (A-kinase anchoring protein 12) #2 gave log2 vehicle/camptothecin viability -0.0528; viability with camptothecin 98.3.
Knock-down of AKAP12 (A-kinase anchoring protein 12) #3 gave: log2 vehicle/camptothecin viability -0.257; viability with camptothecin 104.
Depletion of AKAP12 (A-kinase anchoring protein 12) #4 came out at: log2 vehicle/camptothecin viability -0.239; viability with camptothecin 110.
FBXW8 (F-box and WD repeat domain containing 8) #1 scored log2 vehicle/camptothecin viability -0.22; viability with camptothecin 72.
FBXW8 (F-box and WD repeat domain containing 8) #2 showed log2 vehicle/camptothecin viability 0.17; viability with camptothecin 51.9.
Depletion of FBXW8 (F-box and WD repeat domain containing 8) #3 gave: log2 vehicle/camptothecin viability -0.0839; viability with camptothecin 111.
RHOXF1 (Rhox homeobox family member 1) #1 scored log2 vehicle/camptothecin viability 0.199; viability with camptothecin 72.9.
RHOXF1 (Rhox homeobox family member 1) #2 showed log2 vehicle/camptothecin viability -0.468; viability with camptothecin 85.
Against RHOXF1 (Rhox homeobox family member 1) #3, the entry reads log2 vehicle/camptothecin viability -0.0519; viability with camptothecin 105.
Against RHOXF1 (Rhox homeobox family member 1) #4 the deposit lists log2 vehicle/camptothecin viability -0.121; viability with camptothecin 49.5.

Individual results from above.
Value for CATSPER2 (cation channel sperm associated 2) #1 under “viability with camptothecin”: 87.2
CATSPER2 (cation channel sperm associated 2) #3, viability with camptothecin = 94.7
Entry for PARP1 (poly(ADP-ribose) polymerase 1) #2 in “log2 vehicle/camptothecin viability”: -0.0606
